Experimental data from publication PMC1473194.
No constants are given. Whether binding was seen depends on the method and setting. In cells and extracts the contact can be indirect. Some entries that bind do so weakly or less than the wild type. For some of these results: Where a sequence is shown, tags or fusion partners need not be part of it.

By UniProt entry, the sequences of proteins in these tests, tags left out.
UniProt Q03347: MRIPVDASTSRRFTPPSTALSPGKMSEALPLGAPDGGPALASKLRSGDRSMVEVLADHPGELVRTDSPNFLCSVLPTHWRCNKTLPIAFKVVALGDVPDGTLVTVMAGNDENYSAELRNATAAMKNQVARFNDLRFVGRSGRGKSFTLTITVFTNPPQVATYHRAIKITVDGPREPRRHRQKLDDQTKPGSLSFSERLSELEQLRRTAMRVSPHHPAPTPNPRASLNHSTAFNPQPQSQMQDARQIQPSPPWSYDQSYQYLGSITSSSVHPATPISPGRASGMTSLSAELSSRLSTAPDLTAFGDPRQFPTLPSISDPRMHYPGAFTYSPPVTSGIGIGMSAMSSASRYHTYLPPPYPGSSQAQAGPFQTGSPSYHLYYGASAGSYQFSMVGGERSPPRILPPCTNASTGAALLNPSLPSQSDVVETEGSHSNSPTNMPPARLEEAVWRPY
UniProt P06803: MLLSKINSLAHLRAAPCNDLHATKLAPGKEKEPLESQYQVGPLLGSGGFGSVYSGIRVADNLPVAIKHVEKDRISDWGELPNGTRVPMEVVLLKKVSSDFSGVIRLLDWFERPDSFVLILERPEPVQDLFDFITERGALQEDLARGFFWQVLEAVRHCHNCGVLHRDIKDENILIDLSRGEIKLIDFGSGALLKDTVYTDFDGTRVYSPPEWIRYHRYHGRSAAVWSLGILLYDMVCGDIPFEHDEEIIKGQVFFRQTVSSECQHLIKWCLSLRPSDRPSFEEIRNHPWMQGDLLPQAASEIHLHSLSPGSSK

Tests used:
[1] = target: FLAG-tagged Runx1 (pFLAG-CMV-2) (murine) (UniProt Q03347); experiment: co-IP; COS-7 cells transiently transfected; immunoprecipitation with M2 anti-FLAG on protein G-sepharose at 4°C, blot with anti-Pim-1; data not shown
[2] = target: MYC-tagged Runx1 (pAMC-Runx1) (murine) (UniProt Q03347); experiment: co-IP; COS-7 cells transiently transfected; lysate in co-IP buffer (50 mM Tris-HCl pH 7.5, 150 mM NaCl, 0.1 mM EDTA, 0.5 % NP-40, 20% glycerol); immunoprecipitation with anti-MYC on protein G-sepharose at 4°C, blot with anti-Pim-1
[3] = target: MYC-tagged Runx3 (pAMC-Runx3) (murine) (UniProt Q64131); experiment: as above
[4] = target: T1, GST-B19 fusion protein (amino acids 264-404 of human RUNX3 fused to GST) (human) (UniProt Q13761); experiment: pull-down; GST pull-down with bacterially produced GST-B19 and in vitro translated 35S-labeled Pim-1; data not shown; only the target purified
T1 sequence: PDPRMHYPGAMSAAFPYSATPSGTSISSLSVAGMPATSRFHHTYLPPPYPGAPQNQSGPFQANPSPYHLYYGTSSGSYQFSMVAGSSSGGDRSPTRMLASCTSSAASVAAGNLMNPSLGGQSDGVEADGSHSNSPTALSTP

binding [1]	binding [2]	binding [3]	binding [4]	Substance
binds	binds	binds	–	Pim-1 expressed from pSV-pim-1 in COS-7 cells (from UniProt P06803 1-313) (enzyme)
–	–	–	binds	in vitro translated 35S-labeled Pim-1 protein (from UniProt P06803 1-313) (enzyme)
